Experimental data taken from the supplement of paper PMC12823440, “Inhibitors supercharge kinase turnover through native proteolytic circuits” (Nature, 2025).
Where a name gives a salt, the structure may show the parent alone. This is one part of the list. The calls rarely recur for the same compound in another form.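 Kinases, fused to nanoluciferase, were expressed in K562 cells; luminescence was measured every 4 h from 2 to 18 h as percent of control (DMSO = 100%, positive control = 0%). A time point is decreased if signal falls significantly (2 sigma). Hits were called by the authors by a rule that is not shown; the count of time points alone does not decide it.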

By UniProt entry, the sequences of proteins in these tests, tags left out. Where a name states a change or a piece, a line headed by the entry shows the natural chain unless it says otherwise.
UniProt P50613: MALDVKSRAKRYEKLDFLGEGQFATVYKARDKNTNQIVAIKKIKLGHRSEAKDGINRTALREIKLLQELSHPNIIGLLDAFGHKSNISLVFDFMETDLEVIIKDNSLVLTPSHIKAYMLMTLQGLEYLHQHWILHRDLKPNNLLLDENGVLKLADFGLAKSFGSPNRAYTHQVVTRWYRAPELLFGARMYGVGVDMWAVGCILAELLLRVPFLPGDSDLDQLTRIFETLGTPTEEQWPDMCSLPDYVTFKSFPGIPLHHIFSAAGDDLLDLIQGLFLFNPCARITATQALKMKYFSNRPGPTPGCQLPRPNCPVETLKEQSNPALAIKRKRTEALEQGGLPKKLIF
UniProt P50750, whole entry: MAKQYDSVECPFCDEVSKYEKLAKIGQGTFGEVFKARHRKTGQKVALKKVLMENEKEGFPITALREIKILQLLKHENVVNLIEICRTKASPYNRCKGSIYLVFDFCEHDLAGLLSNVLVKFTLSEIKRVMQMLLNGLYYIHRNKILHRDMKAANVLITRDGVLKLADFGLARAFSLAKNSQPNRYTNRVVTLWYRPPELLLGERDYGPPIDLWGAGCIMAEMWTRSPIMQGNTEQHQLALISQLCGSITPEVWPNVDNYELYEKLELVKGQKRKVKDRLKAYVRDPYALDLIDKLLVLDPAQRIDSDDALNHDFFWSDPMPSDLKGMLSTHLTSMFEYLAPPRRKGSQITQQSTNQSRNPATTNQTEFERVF
UniProt O96017, whole entry: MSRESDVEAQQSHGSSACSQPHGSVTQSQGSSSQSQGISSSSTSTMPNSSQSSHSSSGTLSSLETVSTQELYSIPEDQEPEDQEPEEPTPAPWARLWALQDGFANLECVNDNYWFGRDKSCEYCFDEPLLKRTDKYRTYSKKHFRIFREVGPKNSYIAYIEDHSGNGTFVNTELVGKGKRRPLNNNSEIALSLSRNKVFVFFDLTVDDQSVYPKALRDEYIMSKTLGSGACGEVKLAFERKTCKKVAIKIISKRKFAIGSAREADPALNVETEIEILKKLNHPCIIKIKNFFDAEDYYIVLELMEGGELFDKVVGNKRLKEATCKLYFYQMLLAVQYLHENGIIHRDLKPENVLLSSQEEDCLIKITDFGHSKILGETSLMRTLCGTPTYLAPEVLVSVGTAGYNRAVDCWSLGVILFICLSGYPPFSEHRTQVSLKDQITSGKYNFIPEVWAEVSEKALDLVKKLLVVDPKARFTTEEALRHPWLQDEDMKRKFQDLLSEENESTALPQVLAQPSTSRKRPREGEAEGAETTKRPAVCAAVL
UniProt P07333, whole entry: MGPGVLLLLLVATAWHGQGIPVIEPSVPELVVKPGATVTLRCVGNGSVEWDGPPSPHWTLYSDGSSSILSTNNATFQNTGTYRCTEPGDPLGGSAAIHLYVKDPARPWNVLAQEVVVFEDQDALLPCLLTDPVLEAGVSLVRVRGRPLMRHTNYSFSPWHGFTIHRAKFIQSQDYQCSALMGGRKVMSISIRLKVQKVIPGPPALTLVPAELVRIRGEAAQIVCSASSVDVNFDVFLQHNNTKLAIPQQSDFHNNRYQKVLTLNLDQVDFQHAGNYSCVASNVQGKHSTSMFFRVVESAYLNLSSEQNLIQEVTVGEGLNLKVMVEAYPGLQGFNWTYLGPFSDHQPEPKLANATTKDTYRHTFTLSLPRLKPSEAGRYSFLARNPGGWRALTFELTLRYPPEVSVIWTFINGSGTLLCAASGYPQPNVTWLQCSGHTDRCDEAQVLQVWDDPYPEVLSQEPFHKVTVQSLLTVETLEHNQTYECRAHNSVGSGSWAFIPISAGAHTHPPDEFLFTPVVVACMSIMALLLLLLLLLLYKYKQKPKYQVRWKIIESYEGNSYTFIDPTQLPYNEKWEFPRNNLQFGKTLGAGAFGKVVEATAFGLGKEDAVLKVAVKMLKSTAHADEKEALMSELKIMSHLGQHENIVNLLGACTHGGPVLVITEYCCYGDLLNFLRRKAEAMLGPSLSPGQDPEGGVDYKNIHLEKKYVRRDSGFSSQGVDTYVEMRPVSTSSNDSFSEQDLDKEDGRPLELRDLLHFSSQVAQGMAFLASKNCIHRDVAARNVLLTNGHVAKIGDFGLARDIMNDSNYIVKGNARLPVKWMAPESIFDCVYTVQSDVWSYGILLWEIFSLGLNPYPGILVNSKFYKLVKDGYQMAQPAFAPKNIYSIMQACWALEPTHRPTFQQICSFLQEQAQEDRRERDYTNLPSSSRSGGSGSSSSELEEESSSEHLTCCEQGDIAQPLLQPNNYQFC
UniProt P41240: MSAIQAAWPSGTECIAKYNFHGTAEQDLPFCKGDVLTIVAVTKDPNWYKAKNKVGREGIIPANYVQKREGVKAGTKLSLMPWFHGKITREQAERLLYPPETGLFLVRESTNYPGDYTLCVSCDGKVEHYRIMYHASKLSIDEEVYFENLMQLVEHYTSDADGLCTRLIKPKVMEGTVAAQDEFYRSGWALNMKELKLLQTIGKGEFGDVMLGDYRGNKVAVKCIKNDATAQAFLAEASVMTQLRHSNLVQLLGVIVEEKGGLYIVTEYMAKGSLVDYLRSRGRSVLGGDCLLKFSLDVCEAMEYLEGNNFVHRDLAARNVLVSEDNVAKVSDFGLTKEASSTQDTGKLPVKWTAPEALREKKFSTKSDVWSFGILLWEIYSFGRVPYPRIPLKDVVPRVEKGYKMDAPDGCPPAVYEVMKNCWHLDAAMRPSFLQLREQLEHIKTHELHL
UniProt P48729: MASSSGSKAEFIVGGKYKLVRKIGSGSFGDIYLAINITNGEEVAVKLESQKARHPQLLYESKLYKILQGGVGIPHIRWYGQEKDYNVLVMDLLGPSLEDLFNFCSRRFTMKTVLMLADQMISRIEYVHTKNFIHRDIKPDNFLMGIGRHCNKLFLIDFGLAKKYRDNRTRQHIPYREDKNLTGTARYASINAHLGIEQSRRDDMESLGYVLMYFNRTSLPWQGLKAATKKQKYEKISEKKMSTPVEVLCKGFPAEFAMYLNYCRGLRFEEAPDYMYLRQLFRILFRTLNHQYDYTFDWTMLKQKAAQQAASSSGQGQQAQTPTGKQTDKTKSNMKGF
UniProt P48730: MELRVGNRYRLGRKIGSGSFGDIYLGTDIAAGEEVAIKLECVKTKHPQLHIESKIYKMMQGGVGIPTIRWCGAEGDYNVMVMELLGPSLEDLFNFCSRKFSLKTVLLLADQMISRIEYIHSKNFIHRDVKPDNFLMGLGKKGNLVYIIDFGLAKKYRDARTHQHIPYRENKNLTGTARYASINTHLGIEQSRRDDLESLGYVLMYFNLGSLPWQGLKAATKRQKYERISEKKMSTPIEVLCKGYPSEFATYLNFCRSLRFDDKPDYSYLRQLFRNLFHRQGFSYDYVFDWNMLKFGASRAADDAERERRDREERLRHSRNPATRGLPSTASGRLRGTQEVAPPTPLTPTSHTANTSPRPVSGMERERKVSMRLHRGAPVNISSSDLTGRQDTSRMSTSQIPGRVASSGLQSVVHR
UniProt Q08345: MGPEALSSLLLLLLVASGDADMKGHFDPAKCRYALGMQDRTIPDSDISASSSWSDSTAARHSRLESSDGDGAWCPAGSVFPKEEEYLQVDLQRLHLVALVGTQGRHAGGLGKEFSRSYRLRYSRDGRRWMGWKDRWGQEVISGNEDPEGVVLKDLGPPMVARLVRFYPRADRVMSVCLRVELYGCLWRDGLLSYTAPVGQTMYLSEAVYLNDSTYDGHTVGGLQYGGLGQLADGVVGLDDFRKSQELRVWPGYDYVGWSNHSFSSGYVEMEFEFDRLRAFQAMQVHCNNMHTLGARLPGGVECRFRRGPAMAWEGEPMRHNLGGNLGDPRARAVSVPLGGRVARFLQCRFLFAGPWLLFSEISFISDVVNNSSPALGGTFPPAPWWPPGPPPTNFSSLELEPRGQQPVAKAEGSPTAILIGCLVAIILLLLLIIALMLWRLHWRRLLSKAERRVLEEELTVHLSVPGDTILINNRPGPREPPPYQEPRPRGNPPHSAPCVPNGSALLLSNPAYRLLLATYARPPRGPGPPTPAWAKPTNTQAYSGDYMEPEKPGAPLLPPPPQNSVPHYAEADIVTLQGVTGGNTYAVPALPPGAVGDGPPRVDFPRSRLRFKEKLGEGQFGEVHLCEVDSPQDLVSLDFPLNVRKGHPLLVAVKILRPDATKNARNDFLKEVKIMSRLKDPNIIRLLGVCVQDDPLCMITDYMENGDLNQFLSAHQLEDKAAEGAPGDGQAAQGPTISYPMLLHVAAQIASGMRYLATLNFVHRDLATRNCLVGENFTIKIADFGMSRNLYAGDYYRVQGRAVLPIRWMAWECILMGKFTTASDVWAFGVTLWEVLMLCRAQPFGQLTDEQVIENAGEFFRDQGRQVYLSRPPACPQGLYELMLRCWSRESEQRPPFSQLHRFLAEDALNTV
UniProt Q9Y463, whole entry, looked up: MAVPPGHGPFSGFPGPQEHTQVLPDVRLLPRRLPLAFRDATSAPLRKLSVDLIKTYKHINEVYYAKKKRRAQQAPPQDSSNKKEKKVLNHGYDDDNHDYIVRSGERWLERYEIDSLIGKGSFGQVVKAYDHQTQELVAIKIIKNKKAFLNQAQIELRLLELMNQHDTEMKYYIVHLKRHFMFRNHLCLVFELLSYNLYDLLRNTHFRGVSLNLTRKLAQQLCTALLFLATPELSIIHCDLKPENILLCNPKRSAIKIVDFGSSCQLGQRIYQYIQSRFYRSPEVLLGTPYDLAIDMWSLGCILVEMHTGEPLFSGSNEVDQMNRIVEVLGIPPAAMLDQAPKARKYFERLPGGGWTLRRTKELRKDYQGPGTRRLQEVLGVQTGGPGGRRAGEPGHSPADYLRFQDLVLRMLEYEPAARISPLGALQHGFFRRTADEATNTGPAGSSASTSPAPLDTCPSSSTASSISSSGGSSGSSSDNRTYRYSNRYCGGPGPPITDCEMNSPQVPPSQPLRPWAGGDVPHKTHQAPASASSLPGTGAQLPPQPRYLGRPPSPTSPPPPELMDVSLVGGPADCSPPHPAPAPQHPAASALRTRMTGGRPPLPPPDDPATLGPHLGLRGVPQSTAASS
UniProt Q92630: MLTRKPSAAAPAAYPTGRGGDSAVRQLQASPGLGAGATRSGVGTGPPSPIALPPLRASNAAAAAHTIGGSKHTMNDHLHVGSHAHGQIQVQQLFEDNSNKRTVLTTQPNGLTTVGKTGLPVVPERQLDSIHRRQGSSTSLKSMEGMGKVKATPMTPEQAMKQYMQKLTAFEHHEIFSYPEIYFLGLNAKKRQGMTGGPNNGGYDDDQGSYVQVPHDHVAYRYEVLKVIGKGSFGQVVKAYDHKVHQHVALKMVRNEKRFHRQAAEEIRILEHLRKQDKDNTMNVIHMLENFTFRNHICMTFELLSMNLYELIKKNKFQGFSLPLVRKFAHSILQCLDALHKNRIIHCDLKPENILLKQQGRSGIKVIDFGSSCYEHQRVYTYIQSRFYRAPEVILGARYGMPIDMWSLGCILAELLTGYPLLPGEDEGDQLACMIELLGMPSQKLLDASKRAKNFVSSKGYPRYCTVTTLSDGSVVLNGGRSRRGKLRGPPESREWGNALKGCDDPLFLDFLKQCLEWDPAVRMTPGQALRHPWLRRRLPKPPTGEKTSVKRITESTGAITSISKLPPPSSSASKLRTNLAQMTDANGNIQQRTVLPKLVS

How the values were obtained:
Assay in all cases: kinase-Nluc reporter destabilization hit call (1 = scored as downregulated) (binary); higher = compound decreases kinase abundance
Conditions in all cases: K562; 2-18 h
CDK7 = CDK7 (UniProt P50613)
CDK9 = CDK9 (UniProt P50750)
CHEK2 = CHEK2 (UniProt O96017)
CSF1R = CSF1R (UniProt P07333)
CSK = CSK (UniProt P41240)
CSNK1A1 = CSNK1A1 (UniProt P48729)
CSNK1D = CSNK1D (UniProt P48730)
DDR1 = DDR1 (UniProt Q08345)
DYRK1B = DYRK1B (UniProt Q9Y463)
DYRK2 = DYRK2 (UniProt Q92630)

Measured: kinase-Nluc reporter destabilization hit call

Cc1ccc2c(Nc3ccc(Cl)cc3)nccc2c1Nc1ncccc1-c1ncnc2nc[nH]c12 [Raf inhibitor 1] (2.5 µM)
inactive: CDK7 = 0 | CDK9 = 0 | CHEK2 = 0 | CSF1R 0 | CSK 0 | CSNK1A1 = 0 | CSNK1D 0 | DDR1 = 0 | DYRK1B 0 | DYRK2 = 0

N#C/C(=C\c1ccc(O)c(O)c1)C(=O)NCCCc1ccccc1 (10 µM)
inactive: CDK7 = 0 | CDK9 = 0 | CHEK2 = 0 | CSF1R 0 | CSK 0 | CSNK1A1 = 0 | CSNK1D 0 | DDR1 = 0 | DYRK1B 0 | DYRK2 = 0

C=CC(=O)Nc1ccc2ncnc(Nc3cccc(Br)c3)c2c1 (10 µM)
inactive: CDK7 = 0 | CDK9 = 0 | CHEK2 = 0 | CSF1R 0 | CSK 0 | CSNK1A1 = 0 | CSNK1D 0 | DDR1 = 0 | DYRK1B 0 | DYRK2 = 0

N#Cc1ccc2[nH]c(O)c(-c3ccc(CN4CCOCC4)cn3)c2c1 (10 µM)
inactive: CDK7 = 0 | CDK9 = 0 | CHEK2 = 0 | CSF1R 0 | CSK 0 | CSNK1A1 = 0 | CSNK1D 0 | DDR1 = 0 | DYRK1B 0 | DYRK2 = 0

FC(F)(F)c1ccc(CNc2ccc(Cc3c[nH]c4ncc(Cl)cc34)cn2)cc1 (10 µM)
inactive: CDK7 = 0 | CDK9 = 0 | CHEK2 = 0 | CSF1R 0 | CSK 0 | CSNK1A1 = 0 | CSNK1D 0 | DDR1 = 0 | DYRK1B 0 | DYRK2 = 0

C=CC(=O)N1CCN(CCCn2c(=O)c(-c3c(Cl)c(OC)cc(OC)c3Cl)cc3cnc(NC)nc32)CC1 (10 µM)
inactive: CDK7 = 0 | CDK9 = 0 | CHEK2 = 0 | CSF1R 0 | CSK 0 | CSNK1A1 = 0 | CSNK1D 0 | DDR1 = 0 | DYRK1B 0 | DYRK2 = 0

C=CC(=O)Nc1cccc(Nc2nc(Nc3ccc(OCCOC)cc3)ncc2F)c1 [Spebrutinib] (10 µM)
inactive: CDK7 = 0 | CDK9 = 0 | CHEK2 = 0 | CSF1R 0 | CSK 0 | CSNK1A1 = 0 | CSNK1D 0 | DDR1 = 0 | DYRK1B 0 | DYRK2 = 0

CC(C)(C)c1nc2c3cc[nH]c(=O)c3c3cc(F)ccc3c2[nH]1 [Pyridone 6] (10 µM)
inactive: CDK7 = 0 | CDK9 = 0 | CHEK2 = 0 | CSF1R 0 | CSK 0 | CSNK1A1 = 0 | CSNK1D 0 | DDR1 = 0 | DYRK1B 0 | DYRK2 = 0

O=C1Cc2c([nH]c3ccc(Br)cc23)-c2ncccc2N1 [1-Azakenpaullone] (10 µM)
inactive: CDK7 = 0 | CDK9 = 0 | CHEK2 = 0 | CSF1R 0 | CSK 0 | CSNK1A1 = 0 | CSNK1D 0 | DDR1 = 0 | DYRK1B 0 | DYRK2 = 0

COc1cc(C(=O)NC2CCN(C)CC2)c(F)cc1Nc1ncc2c(n1)N(C1CCCC1)CC(F)(F)C(=O)N2C [TAK-960 (dihydrochloride)] (2.5 µM)
inactive: CDK7 = 0 | CDK9 = 0 | CHEK2 = 0 | CSF1R 0 | CSK 0 | CSNK1A1 = 0 | CSNK1D 0 | DDR1 = 0 | DYRK1B 0 | DYRK2 = 0

Three compounds from above, arranged by molecular weight, smallest number first.
CC(C)(C)c1nc2c3cc[nH]c(=O)c3c3cc(F)ccc3c2[nH]1 [Pyridone 6] (10 µM)
inactive: CDK7 = 0 | CDK9 = 0 | CHEK2 = 0 | CSF1R 0 | CSK 0 | CSNK1A1 = 0 | CSNK1D 0 | DDR1 = 0 | DYRK1B 0 | DYRK2 = 0

O=C1Cc2c([nH]c3ccc(Br)cc23)-c2ncccc2N1 [1-Azakenpaullone] (10 µM)
inactive: CDK7 = 0 | CDK9 = 0 | CHEK2 = 0 | CSF1R 0 | CSK 0 | CSNK1A1 = 0 | CSNK1D 0 | DDR1 = 0 | DYRK1B 0 | DYRK2 = 0

C=CC(=O)N1CCN(CCCn2c(=O)c(-c3c(Cl)c(OC)cc(OC)c3Cl)cc3cnc(NC)nc32)CC1 (10 µM)
inactive: CDK7 = 0 | CDK9 = 0 | CHEK2 = 0 | CSF1R 0 | CSK 0 | CSNK1A1 = 0 | CSNK1D 0 | DDR1 = 0 | DYRK1B 0 | DYRK2 = 0

Going on with the list.

Oc1ccc(-c2nc(-c3ccc(F)cc3)c(-c3ccncc3)[nH]2)cc1 (2.5 µM)
inactive: CDK7 = 0 | CDK9 = 0 | CHEK2 = 0 | CSF1R 0 | CSK 0 | CSNK1A1 = 0 | CSNK1D 0 | DDR1 = 0 | DYRK1B 0 | DYRK2 = 0

N#CC(=Cc1ccc(O)c(O)c1)C(=O)NCc1ccccc1 (mixture of isomers) (10 µM)
inactive: CDK7 = 0 | CDK9 = 0 | CHEK2 = 0 | CSF1R 0 | CSK 0 | CSNK1A1 = 0 | CSNK1D 0 | DDR1 = 0 | DYRK1B 0 | DYRK2 = 0

Cc1ccc(NC(=O)Nc2nnc(Sc3ncnc4cc(OCCCN5CCOCC5)ccc34)s2)cc1 (10 µM)
inactive: CDK7 = 0 | CDK9 = 0 | CHEK2 = 0 | CSF1R 0 | CSK 0 | CSNK1A1 = 0 | CSNK1D 0 | DDR1 = 0 | DYRK1B 0 | DYRK2 = 0

COc1ccc(NC(=O)N2CCN(c3nc(N)nc4c3cnn4C)[C@@H](C)C2)c(C)c1 (10 µM)
inactive: CDK7 = 0 | CDK9 = 0 | CHEK2 = 0 | CSF1R 0 | CSK 0 | CSNK1A1 = 0 | CSNK1D 0 | DDR1 = 0 | DYRK1B 0 | DYRK2 = 0

Cc1c[nH]c(/C=C2\C(=O)Nc3ccccc32)c1CCC(=O)O (10 µM)
inactive: CDK7 = 0 | CDK9 = 0 | CHEK2 = 0 | CSF1R 0 | CSK 0 | CSNK1A1 = 0 | CSNK1D 0 | DDR1 = 0 | DYRK1B 0 | DYRK2 = 0

COc1cc(OC)cc(N(CCNC(C)C)c2ccc3ncc(-c4cnn(C)c4)nc3c2)c1 [Erdafitinib] (2.5 µM)
inactive: CDK7 = 0 | CDK9 = 0 | CHEK2 = 0 | CSF1R 0 | CSK 0 | CSNK1A1 = 0 | CSNK1D 0 | DDR1 = 0 | DYRK1B 0 | DYRK2 = 0

O=C(c1ccc(-c2ccc(Cl)cc2)o1)N(Cc1ccccn1)c1ccc(N2CCNCC2)cc1 [MK2-IN-1 (hydrochloride)] (10 µM)
inactive: CDK7 = 0 | CDK9 = 0 | CHEK2 = 0 | CSF1R 0 | CSK 0 | CSNK1A1 = 0 | CSNK1D 0 | DDR1 = 0 | DYRK1B 0 | DYRK2 = 0

CCOc1cc2ncc(-c3cc(N)nc(F)c3)n2cc1S(=O)(=O)C(C)(C)C (10 µM)
inactive: CDK7 = 0 | CDK9 = 0 | CHEK2 = 0 | CSF1R 0 | CSK 0 | CSNK1A1 = 0 | CSNK1D 0 | DDR1 = 0 | DYRK1B 0 | DYRK2 = 0

O=C1NCCc2[nH]c(-c3ccnc(-c4cnc5ccccc5c4)c3)cc21 (10 µM)
inactive: CDK7 = 0 | CDK9 = 0 | CHEK2 = 0 | CSF1R 0 | CSK 0 | CSNK1A1 = 0 | CSNK1D 0 | DDR1 = 0 | DYRK1B 0 | DYRK2 = 0

COc1cc2nc(C)nc(N[C@H](C)c3cc(N)cc(C(F)(F)F)c3)c2cc1O[C@H]1CCOC1 (10 µM)
inactive: CDK7 = 0 | CDK9 = 0 | CHEK2 = 0 | CSF1R 0 | CSK 0 | CSNK1A1 = 0 | CSNK1D 0 | DDR1 = 0 | DYRK1B 0 | DYRK2 = 0

COc1cc(CCc2cc(-c3nc4ccc(N5CCN(C)CC5)cc4[nH]3)n[nH]2)cc(OC)c1 (10 µM)
inactive: CDK7 = 0 | CDK9 = 0 | CHEK2 = 0 | CSF1R 0 | CSK 0 | CSNK1A1 = 0 | CSNK1D 0 | DDR1 = 0 | DYRK1B 0 | DYRK2 = 0

CC(C)(C)S(=O)(=O)c1cc2c(Nc3ccc4scnc4c3)ncnc2cc1OCCO (2.5 µM)
inactive: CDK7 = 0 | CDK9 = 0 | CHEK2 = 0 | CSF1R 0 | CSK 0 | CSNK1A1 = 0 | CSNK1D 0 | DDR1 = 0 | DYRK1B 0 | DYRK2 = 0

CC[C@H](CO)Nc1nc(NCc2ccccc2)c2ncn(C(C)C)c2n1 [Seliciclib] (10 µM)
inactive: CDK7 = 0 | CDK9 = 0 | CHEK2 = 0 | CSF1R 0 | CSK 0 | CSNK1A1 = 0 | CSNK1D 0 | DDR1 = 0 | DYRK1B 0 | DYRK2 = 0

CC(C)CC(=O)Nc1n[nH]c2c1CN(C(=O)C1CCN(C)CC1)C2(C)C (2.5 µM)
inactive: CDK7 = 0 | CDK9 = 0 | CHEK2 = 0 | CSF1R 0 | CSK 0 | CSNK1A1 = 0 | CSNK1D 0 | DDR1 = 0 | DYRK1B 0 | DYRK2 = 0

Cc1ccc(NC(=O)c2cccc(N(C)C)c2)cc1NC(=O)c1ccc(O)cc1 (10 µM)
inactive: CDK7 = 0 | CDK9 = 0 | CHEK2 = 0 | CSF1R 0 | CSK 0 | CSNK1A1 = 0 | CSNK1D 0 | DDR1 = 0 | DYRK1B 0 | DYRK2 = 0

N#C/C(=C\c1ccc(O)c(O)c1)C(=O)NCc1ccccc1 (10 µM)
inactive: CDK7 = 0 | CDK9 = 0 | CHEK2 = 0 | CSF1R 0 | CSK 0 | CSNK1A1 = 0 | CSNK1D 0 | DDR1 = 0 | DYRK1B 0 | DYRK2 = 0

COc1cc(Oc2ccnc3cc(OC)c(OC)cc23)ccc1NC(=O)NC(C)c1nccs1 (stereo not given) (2.5 µM)
inactive: CDK7 = 0 | CDK9 = 0 | CHEK2 = 0 | CSF1R 0 | CSK 0 | CSNK1A1 = 0 | CSNK1D 0 | DDR1 = 0 | DYRK1B 0 | DYRK2 = 0

O=C1c2ccccc2-c2n[nH]c3cccc1c23 (10 µM)
inactive: CDK7 = 0 | CDK9 = 0 | CHEK2 = 0 | CSF1R 0 | CSK 0 | CSNK1A1 = 0 | CSNK1D 0 | DDR1 = 0 | DYRK1B 0 | DYRK2 = 0

COc1c(Cl)cc2c([nH]c3cnccc32)c1NC(=O)c1cccnc1C (10 µM)
inactive: CDK7 = 0 | CDK9 = 0 | CHEK2 = 0 | CSF1R 0 | CSK 0 | CSNK1A1 = 0 | CSNK1D 0 | DDR1 = 0 | DYRK1B 0 | DYRK2 = 0

O=C1Nc2ccccc2/C1=C/c1ccc(F)cc1 (10 µM)
inactive: CDK7 = 0 | CDK9 = 0 | CHEK2 = 0 | CSF1R 0 | CSK 0 | CSNK1A1 = 0 | CSNK1D 0 | DDR1 = 0 | DYRK1B 0 | DYRK2 = 0
